Assay results: patent US20120083522A1, “MODULATION OF INFLAMMATORY RESPONSES BY FACTOR XI” (Isis Pharmaceuitcals, inc., priority 2009, published 2012)
Some results were stated once for a whole list of compounds, not compound by compound. In the oligonucleotide strings, read from the 5' end, every base follows the letter of its sugar. An asterisk marks phosphorothioate; unmarked linkages are phosphodiester. Other units and linkages are bracketed, terminal groups are in braces. A string of capitals states the bases alone. e = 2'-O-(2-methoxyethyl) (MOE); [5mC] = 5-methylcytosine; d = 2'-deoxy (DNA)

Tested on: human Factor XI mRNA
Test: Antisense inhibition in HepG2 cells by microwalk gapmers, 75 nM, lipofectin (Example 3)
Type: cell-based
Details: HepG2, 75 nM, approximately 24 hours
Experimental: These gapmers were designed by creating gapmers shifted slightly upstream and downstream (i.e. “microwalk”) of the original gapmers from Table 3. Gapmers were also created with various motifs, e.g. 5-10-5 MOE, 3-14-3 MOE, and 2-13-5 MOE. These gapmers were tested in vitro. Cultured HepG2 cells at a density of 10,000 cells per well were transfected using lipofectin reagent with 75 nM antisense oligonucleotide. After a treatment period of approximately 24 hours, RNA was isolated from the cells and Factor XI mRNA levels were measured by quantitative real-time PCR. Factor XI mRNA levels were adjusted according to total RNA content, as measured by RIBOGREEN®. Results are presented as percent inhibition of Factor XI, relative to untreated control cells.
The chimeric antisense oligonucleotides in Table 4 were designed as 5-10-5 MOE, 3-14-3 MOE, and 2-13-5 MOE gapmers. The first listed gapmers in Table 4 are the original gapmers (see Table 3) from which the remaining gapmers were designed via microwalk and are designated by an asterisk. The 5-10-5 gapmers are 20 nucleotides in length, wherein the central gap segment is comprised of 10 2′-deoxynucleotides and is flanked on both sides (in the 5′ and 3′ directions) by wings comprising 5 nucleotides each. The 3-14-3 gapmers are 20 nucleotides in length, wherein the central gap segment is comprised of 14 2′-deoxynucleotides and is flanked on both sides (in the 5′ and 3′ directions) by wings comprising 3 nucleotides each. The 2-13-5 gapmers are 20 nucleotides in length, wherein the central gap segment is comprised of 13 2′-deoxynucleotides. The central gap is flanked on the 5′ end with a wing comprising 2 nucleotides and on the 3′ end with a wing comprising 5 nucleotides. For each of the motifs (5-10-5, 3-14-3, and 2-13-5), each nucleotide in the 5′ wing segment and each nucleotide in the 3′ wing segment has a 2′-MOE modification. The internucleoside linkages throughout each gapmer are phosphorothioate (P═S) linkages. All cytidine residues throughout each gapmer are 5-methylcytidines. “Target start site” indicates the 5′-most nucleotide to which the gapmer is targeted. “Target stop site” indicates the 3′-most nucleotide to which the gapmer is targeted. Each gapmer listed in Table 4 is targeted to SEQ ID NO: 1 (GENBANK Accession No. NM_000128.3).

## 416918 (antisense eT*eT*e[5mC]*dT*dT*dT*dG*dA*dG*dA*dT*dT*d[5mC]*dT*dT*dT*dG*eG*eG*e[5mC]) [compound 416918]
  inhibition of Factor XI mRNA (thresholds stated in text, Tables 4-8): at least 50%

## 416854 (antisense eA*eT*eT*eG*eG*dT*dG*d[5mC]*dA*d[5mC]*dA*dG*dT*dT*dT*e[5mC]*eT*eG*eG*e[5mC]) [compound 416854]
  inhibition of Factor XI mRNA (thresholds stated in text, Tables 4-8): at least 80%

## 416891 (antisense e[5mC]*e[5mC]*e[5mC]*dT*dT*d[5mC]*dA*dT*dG*dT*d[5mC]*dT*dA*dG*dG*dT*d[5mC]*e[5mC]*eA*e[5mC]) [compound 416891]
  inhibition of Factor XI mRNA (thresholds stated in text, Tables 4-8): at least 80%

## 417019 (antisense eT*eG*dG*d[5mC]*dA*dG*d[5mC]*dG*dG*dA*d[5mC]*dG*dG*d[5mC]*dA*eT*eT*eG*eG*eT) [compound 417019]
  inhibition of Factor XI mRNA (thresholds stated in text, Tables 4-8): at least 80%

## 413469 (antisense eT*eG*e[5mC]*e[5mC]*e[5mC]*dT*dT*d[5mC]*dA*dT*dG*dT*d[5mC]*dT*dA*eG*eG*eT*e[5mC]*e[5mC]) [compound 413469]
  inhibition of Factor XI mRNA (thresholds stated in text, Tables 4-8): at least 80%

## 416930 (antisense eG*e[5mC]*eA*dT*dT*dG*dG*dT*dG*d[5mC]*dA*d[5mC]*dA*dG*dT*dT*dT*e[5mC]*eT*eG) [compound 416930]
  inhibition of Factor XI mRNA (thresholds stated in text, Tables 4-8): at least 80%

## 417013 (antisense e[5mC]*eG*dG*dA*d[5mC]*dG*dG*d[5mC]*dA*dT*dT*dG*dG*dT*dG*e[5mC]*eA*e[5mC]*eA*eG) [compound 417013]
  inhibition of Factor XI mRNA (thresholds stated in text, Tables 4-8): at least 80%

## 416929 (antisense e[5mC]*eA*eT*dT*dG*dG*dT*dG*d[5mC]*dA*d[5mC]*dA*dG*dT*dT*dT*d[5mC]*eT*eG*eG) [compound 416929]
  inhibition of Factor XI mRNA (thresholds stated in text, Tables 4-8): at least 80%

## 416907 (antisense e[5mC]*eA*eA*d[5mC]*d[5mC]*dG*dG*dG*dA*dT*dG*dA*dT*dG*dA*dG*dT*eG*e[5mC]*eA) [compound 416907]
  inhibition of Factor XI mRNA (thresholds stated in text, Tables 4-8): at least 90%

## 416809 (antisense e[5mC]*eA*eT*eA*eA*dA*dT*dG*dT*d[5mC]*dT*dT*dT*dG*dT*eT*eG*e[5mC]*eA*eA) [compound 416809]
  inhibition of Factor XI mRNA (thresholds stated in text, Tables 4-8): at least 80%

## 412225 (antisense GCAGCGGACGGCATTGGTGC; sugars from the 5' end e5 d10 e5, backbone and methylation of C not given here) [compound 412225]
  inhibition of Factor XI mRNA (thresholds stated in text, Tables 4-8): at least 80%

## 412223 (antisense ACAGTTTCTGGCAGGCCTCG; sugars from the 5' end e5 d10 e5, backbone and methylation of C not given here) [compound 412223]
  inhibition of Factor XI mRNA (thresholds stated in text, Tables 4-8): at least 80%

## 413468 (antisense eG*eT*e[5mC]*eT*eA*dG*dG*dT*d[5mC]*d[5mC]*dA*d[5mC]*dA*dT*dA*eA*eA*eT*eG*eT) [compound 413468]
  inhibition of Factor XI mRNA (thresholds stated in text, Tables 4-8): at least 80%

## 416855 (antisense e[5mC]*eA*eT*eT*eG*dG*dT*dG*d[5mC]*dA*d[5mC]*dA*dG*dT*dT*eT*e[5mC]*eT*eG*eG) [compound 416855]
  inhibition of Factor XI mRNA (thresholds stated in text, Tables 4-8): at least 80%

## 416899 (antisense eT*e[5mC]*e[5mC]*dG*dT*dG*d[5mC]*dA*dT*d[5mC]*dT*dT*dT*d[5mC]*dT*dT*dG*eG*e[5mC]*eA) [compound 416899]
  inhibition of Factor XI mRNA (thresholds stated in text, Tables 4-8): at least 80%

## 416908 (antisense eG*e[5mC]*eA*dA*d[5mC]*d[5mC]*dG*dG*dG*dA*dT*dG*dA*dT*dG*dA*dG*eT*eG*e[5mC]) [compound 416908]
  inhibition of Factor XI mRNA (thresholds stated in text, Tables 4-8): at least 90%

## 416865 (antisense eT*eG*eG*e[5mC]*eA*dG*d[5mC]*dG*dG*dA*d[5mC]*dG*dG*d[5mC]*dA*eT*eT*eG*eG*eT) [compound 416865]
  inhibition of Factor XI mRNA (thresholds stated in text, Tables 4-8): at least 80%

## 417003 (antisense TGGTGCACAGTTTCTGGCAG; 2-13-5 gapmer, wing sugar chemistry not given here, further chemistry not given here) [compound 417003]
  inhibition of Factor XI mRNA (thresholds stated in text, Tables 4-8): at least 80%

## 416977 (antisense eA*eT*d[5mC]*d[5mC]*dG*dT*dG*d[5mC]*dA*dT*d[5mC]*dT*dT*dT*d[5mC]*eT*eT*eG*eG*e[5mC]) [compound 416977]
  inhibition of Factor XI mRNA (thresholds stated in text, Tables 4-8): at least 80%

## 416944 (antisense eA*e[5mC]*eT*dG*dG*d[5mC]*dA*dG*d[5mC]*dG*dG*dA*d[5mC]*dG*dG*d[5mC]*dA*eT*eT*eG) [compound 416944]
  inhibition of Factor XI mRNA (thresholds stated in text, Tables 4-8): at least 80%

## 416915 (antisense eT*eT*eT*dG*dA*dG*dA*dT*dT*d[5mC]*dT*dT*dT*dG*dG*dG*d[5mC]*e[5mC]*eA*eT) [compound 416915]
  inhibition of Factor XI mRNA (thresholds stated in text, Tables 4-8): at least 50%

## 416847 (antisense eT*eT*eT*e[5mC]*eT*dT*dT*dG*dA*dG*dA*dT*dT*d[5mC]*dT*eT*eT*eG*eG*eG) [compound 416847]
  inhibition of Factor XI mRNA (thresholds stated in text, Tables 4-8): at least 50%

## 416881 (antisense e[5mC]*eT*eA*dG*dG*dT*d[5mC]*d[5mC]*dA*d[5mC]*dA*dT*dA*dA*dA*dT*dG*eT*e[5mC]*eT) [compound 416881]
  inhibition of Factor XI mRNA (thresholds stated in text, Tables 4-8): at least 80%

## 416936 (antisense e[5mC]*eG*eG*dA*d[5mC]*dG*dG*d[5mC]*dA*dT*dT*dG*dG*dT*dG*d[5mC]*dA*e[5mC]*eA*eG) [compound 416936]
  inhibition of Factor XI mRNA (thresholds stated in text, Tables 4-8): at least 80%

## 416830 (antisense eT*e[5mC]*e[5mC]*eG*eT*dG*d[5mC]*dA*dT*d[5mC]*dT*dT*dT*d[5mC]*dT*eT*eG*eG*e[5mC]*eA) [compound 416830]
  inhibition of Factor XI mRNA (thresholds stated in text, Tables 4-8): at least 80%

## 416980 (antisense eG*eT*d[5mC]*dA*dT*d[5mC]*d[5mC]*dG*dT*dG*d[5mC]*dA*dT*d[5mC]*dT*eT*eT*e[5mC]*eT*eT) [compound 416980]
  inhibition of Factor XI mRNA (thresholds stated in text, Tables 4-8): at least 80%

## 417016 (antisense e[5mC]*eA*dG*d[5mC]*dG*dG*dA*d[5mC]*dG*dG*d[5mC]*dA*dT*dT*dG*eG*eT*eG*e[5mC]*eA) [compound 417016]
  inhibition of Factor XI mRNA (thresholds stated in text, Tables 4-8): at least 80%

## 416852 (antisense TGGTGCACAGTTTCTGGCAG; 5-10-5 gapmer, wing sugar chemistry not given here, further chemistry not given here) [compound 416852]
  inhibition of Factor XI mRNA (thresholds stated in text, Tables 4-8): at least 80%

## 416942 (antisense eT*eG*eG*d[5mC]*dA*dG*d[5mC]*dG*dG*dA*d[5mC]*dG*dG*d[5mC]*dA*dT*dT*eG*eG*eT) [compound 416942]
  inhibition of Factor XI mRNA (thresholds stated in text, Tables 4-8): at least 80%

## 416995 (antisense eT*eT*d[5mC]*dT*dT*dT*dG*dA*dG*dA*dT*dT*d[5mC]*dT*dT*eT*eG*eG*eG*e[5mC]) [compound 416995]
  inhibition of Factor XI mRNA (thresholds stated in text, Tables 4-8): at least 50%

## 416867 (antisense ACTGGCAGCGGACGGCATTG; 5-10-5 gapmer, wing sugar chemistry not given here, further chemistry not given here) [compound 416867]
  inhibition of Factor XI mRNA (thresholds stated in text, Tables 4-8): at least 80%

## 416971 (antisense eA*eT*dG*d[5mC]*d[5mC]*d[5mC]*dT*dT*d[5mC]*dA*dT*dG*dT*d[5mC]*dT*eA*eG*eG*eT*e[5mC]) [compound 416971]
  inhibition of Factor XI mRNA (thresholds stated in text, Tables 4-8): at least 80%

## 416863 (antisense CAGCGGACGGCATTGGTGCA; 5-10-5 gapmer, wing sugar chemistry not given here, further chemistry not given here) [compound 416863]
  inhibition of Factor XI mRNA (thresholds stated in text, Tables 4-8): at least 80%

## 417007 (antisense eG*e[5mC]*dA*dT*dT*dG*dG*dT*dG*d[5mC]*dA*d[5mC]*dA*dG*dT*eT*eT*e[5mC]*eT*eG) [compound 417007]
  inhibition of Factor XI mRNA (thresholds stated in text, Tables 4-8): at least 80%

## 416894 (antisense eA*eT*eG*d[5mC]*d[5mC]*d[5mC]*dT*dT*d[5mC]*dA*dT*dG*dT*d[5mC]*dT*dA*dG*eG*eT*e[5mC]) [compound 416894]
  inhibition of Factor XI mRNA (thresholds stated in text, Tables 4-8): at least 80%

## 417017 (antisense eG*e[5mC]*dA*dG*d[5mC]*dG*dG*dA*d[5mC]*dG*dG*d[5mC]*dA*dT*dT*eG*eG*eT*eG*e[5mC]) [compound 417017]
  inhibition of Factor XI mRNA (thresholds stated in text, Tables 4-8): at least 80%
